This note sets out measurements from article PMC7819943, “Rice protein-binding microarrays: a tool to detect cis-acting elements near promoter regions in rice”.

Amino acid sequences for entries named in this document (tags omitted).
UniProt Q0JBA9, entry or part of it: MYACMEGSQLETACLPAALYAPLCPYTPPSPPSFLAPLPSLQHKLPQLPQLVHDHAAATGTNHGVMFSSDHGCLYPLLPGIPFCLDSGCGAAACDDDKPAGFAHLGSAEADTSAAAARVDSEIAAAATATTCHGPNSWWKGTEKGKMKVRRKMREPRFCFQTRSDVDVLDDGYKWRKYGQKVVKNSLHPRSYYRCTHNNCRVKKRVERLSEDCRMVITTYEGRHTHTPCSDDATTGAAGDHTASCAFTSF

This is one part of the list.

In the assay the target is OsWRKY34 (Oryza sativa, UniProt Q0JBA9 1-250). In words: protein-binding microarray (RPBM); PBS, 2% BSA, 51.3 ng/ul salmon testes DNA, 50 uM zinc acetate, 200 nM TF, 25 C, 1 h; high values mean tight binding. To be noted: protein: recombinant; tags: N-terminal polyhistidine and DsRed monomer fusion (pET32a); label: CyDye5-dUTP incorporated in the synthesized complementary strand; 3' TTTTT single-stranded linker to array surface; dsDNA, one strand shown. Summed up: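 Transcription factors were made in E. coli BL21-CodonPlus as N-terminal fusions to a polyhistidine tag and DsRed, then purified on Ni–NTA. After primer extension with Cy5-dUTP and blocking with 2% BSA, a custom Agilent array was exposed for 1 h at 25 °C to 200 nM protein in PBS, 2% BSA, salmon testes DNA and 50 µM zinc acetate. Washed arrays were scanned on an Axon 4000B, and the binding signal is per-feature fluorescence intensity in arbitrary units.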
As for “GTGGCCAGCCATCCCATCCGGATTTCGAATTTACTCCCTTCGGAGTCACCTAGTGCAG”, the binding signal was 8600 fluorescence intensity (a.u.).

As to “TAGCAAAATTTTCCTTGTTTTTAGGTTGACCATCTGTTTTCGGAGTCACCTAGTGCAG”, the binding signal was 9380 fluorescence intensity (a.u.).

With “CCTCGTATGTCATGTTGTCTGGATCATCGTTATCATCCTGCGGAGTCACCTAGTGCAG”, the binding signal was 9710 fluorescence intensity (a.u.).

Turning to “CTCCCGAATCGCCTCTCGCGTCGCCCTCTCGTGACGTCATCGGAGTCACCTAGTGCAG”, the binding signal is 8470 fluorescence intensity (a.u.).

Regarding “GGTCGTGCAGCTCCGGCCGCCGCTCTCTCGCCTGCCGCCGCGGAGTCACCTAGTGCAG”, the binding signal was 8560 fluorescence intensity (a.u.).

Turning to “ATTTTGCTTGTGTGGATCTATTTCTCCATTCTGTGGATATCGGAGTCACCTAGTGCAG”, the binding signal is 11300 fluorescence intensity (a.u.).

For the sequence “CCGTCGCCGGCGGCGGATCGGCCCCACATCACCTCGGCCTCGGAGTCACCTAGTGCAG”, the binding signal was 8410 fluorescence intensity (a.u.).

Regarding “ACCAATTTCTCCATTCCTCACATATTTGCAGCCTTTAACACGGAGTCACCTAGTGCAG”, the binding signal was 9320 fluorescence intensity (a.u.).

For “TAATATTTACATTTCTCGATGCCCATGTAGCTAATCTTGTCGGAGTCACCTAGTGCAG”, the binding signal was 10800 fluorescence intensity (a.u.).

With “CTGAATGGTGACACATACCCACCCAGACCCGCATCTGTCTCGGAGTCACCTAGTGCAG”, the binding signal was 8500 fluorescence intensity (a.u.).

Regarding “ACACTACTCTTCTTCGTTCTTCCACATGGAAGCCAAGCTACGGAGTCACCTAGTGCAG”, the binding signal was 8300 fluorescence intensity (a.u.).

As to “TGTTCTTTCTCCTTGTGTAGTTGTGTGGTGTGGTTGAGCTCGGAGTCACCTAGTGCAG”, the binding signal is 8970 fluorescence intensity (a.u.).

For “TTGTGCTCTTCATCGGCGCCAGCTTTAGCTTCTTCCTCATCGGAGTCACCTAGTGCAG”, the binding signal was 10500 fluorescence intensity (a.u.).

“CTACTGCTCTACTACATCCTACTCCTAACTCCCACCTAATCGGAGTCACCTAGTGCAG”: the binding signal was 8740 fluorescence intensity (a.u.).

For the sequence “CGCCTAGTGCCGTGATCCTCTTTCGCCGCCGCCGCCGATGCGGAGTCACCTAGTGCAG”, the binding signal was 9320 fluorescence intensity (a.u.).

For the sequence “CCCTCCGTTTTCATATTATAAGTCGTGTGACACTTTTCTTCGGAGTCACCTAGTGCAG”, the binding signal was 8800 fluorescence intensity (a.u.).

On to “CCACACACACATAGTTGACATACACATCAACACATGTACACGGAGTCACCTAGTGCAG”, for which the binding signal was 8240 fluorescence intensity (a.u.).

Consider “CTGTGCTGAGCCAAACCCATCCTTGCTTGCTCATGTCATCCGGAGTCACCTAGTGCAG”, for which the binding signal was 9400 fluorescence intensity (a.u.).

Turning to “CTTCGGAGTTCAGACTGCTCGCTATCTTGCTGTCATTTTACGGAGTCACCTAGTGCAG”, the binding signal is 8170 fluorescence intensity (a.u.).

For “AGGCGGGGTGGTGGAATCCTCGTCCCTCGCCTACTTTTTGCGGAGTCACCTAGTGCAG”, the binding signal was 8050 fluorescence intensity (a.u.).

As to “CCATACCTTTGGGCCGGCCCAGACTCCGTCCACTTGCACGCGGAGTCACCTAGTGCAG”, the binding signal is 9530 fluorescence intensity (a.u.).

As for “CCGAAACAACACACAGGTCATCCGGCCGCTCTCTTCTTTGCGGAGTCACCTAGTGCAG”, the binding signal is 9170 fluorescence intensity (a.u.).

On to “ACTAGGGGTTACTTGCGTATCTACAGTTGACTTTAACTCCCGGAGTCACCTAGTGCAG”, for which the binding signal was 9870 fluorescence intensity (a.u.).

Take “GCGAGGTGGGTCCTTCTCAGTTCAAATCTATCTCGCTGACCGGAGTCACCTAGTGCAG”: the binding signal is 8730 fluorescence intensity (a.u.).

As to “AATATGCCTATTAAAAATAAAATTTTCAGATTTAAAAATACGGAGTCACCTAGTGCAG”, the binding signal is 12100 fluorescence intensity (a.u.).

“GAGATAGATGGGCCTGAAATGCGCCGATGGTCAGGCCTGCCGGAGTCACCTAGTGCAG”: the binding signal was 8190 fluorescence intensity (a.u.).

Regarding “TCCCGAATCTTGCGCGATCGGATCCGCGTCGTCTGAACTCCGGAGTCACCTAGTGCAG”, the binding signal is 8310 fluorescence intensity (a.u.).

Consider “GATTTTTGCGCTTCTTGTGTTCGTGAACCTATCACGCCGCCGGAGTCACCTAGTGCAG”, for which the binding signal is 8070 fluorescence intensity (a.u.).

Regarding “ACAAACCAATTTTTACATATGGACCGCTTAAGAGCCCGGTCGGAGTCACCTAGTGCAG”, the binding signal is 8180 fluorescence intensity (a.u.).

In the case of “CGGTAGGCGTACGTGGAGACCGGTGGAATTCGTCAAAACCCGGAGTCACCTAGTGCAG”, the binding signal was 55000 fluorescence intensity (a.u.).

Consider “TCTCCGTCCCCATCACCCTCGCAATTACTCCACCCGCCGGCGGAGTCACCTAGTGCAG”, for which the binding signal was 9290 fluorescence intensity (a.u.).

As for “TAGAGTGGTTGGTTGGGTACTTGGGTTGGGTTGGGTGGTCCGGAGTCACCTAGTGCAG”, the binding signal is 24300 fluorescence intensity (a.u.).

Turning to “TATAAGACACGAGAAACCTTTGCAAGCCATTCGCTTTTTTCGGAGTCACCTAGTGCAG”, the binding signal was 8200 fluorescence intensity (a.u.).

In the case of “TAATAAGATTTTTTTTCATGGTCATATGATTTCCACGTGTCGGAGTCACCTAGTGCAG”, the binding signal is 8500 fluorescence intensity (a.u.).

On to “GCCCTGACTATCATAGCCACATCTCTATAATAGACAAACTCGGAGTCACCTAGTGCAG”, for which the binding signal is 8340 fluorescence intensity (a.u.).

Regarding “TTCGAACGGTCAACGCGGCCAGGTGCATGTTGTTAGTATTCGGAGTCACCTAGTGCAG”, the binding signal was 8230 fluorescence intensity (a.u.).

Turning to “GCCACGTCACTGCCGGCCAGATTACTTGTCCCATGCAGCTCGGAGTCACCTAGTGCAG”, the binding signal was 8780 fluorescence intensity (a.u.).

Turning to “CGTCGGCTCCCCGTGTACCCATCAATCCGTCACCGTCTTTCGGAGTCACCTAGTGCAG”, the binding signal is 11000 fluorescence intensity (a.u.).

In the case of “CGTGGGTCATTTTTTGTGTCTGTGAGCTTATCTTCTTGTCCGGAGTCACCTAGTGCAG”, the binding signal is 8160 fluorescence intensity (a.u.).

“GGAGGGAGTAGTATATTGGGGATTTTCAGTTGGGTCTGGGCGGAGTCACCTAGTGCAG”: the binding signal is 14200 fluorescence intensity (a.u.).

Turning to “CCACCACTACACACTCCACTCCATTTCCCACTCGACTCCACGGAGTCACCTAGTGCAG”, the binding signal was 10500 fluorescence intensity (a.u.).

Take “CGGGATACTCAAGGGGTTCGTGGGGCTCAGCGGCGCCGTGCGGAGTCACCTAGTGCAG”: the binding signal was 9340 fluorescence intensity (a.u.).
